Laboratory results from publication PMC6479402, “Anti-Herpetic, Anti-Dengue and Antineoplastic Activities of Simple and Heterocycle-Fused Derivatives of Terpenyl-1,4-Naphthoquinone and 1,4-Anthraquinone” (Molecules, 2019).

Tests used:
HeLa = test: MTT cytotoxicity assay; assay type: cell-based, human; conditions: HeLa vs Vero; 48 h
Experimental: (§1) Then, each diluted molecule was added to the cells and incubated for further 48 h at 37 °C, 5% CO2. […] The DMSO was then added to dissolve the formed formazan crystals and absorbance was determined spectrophotometrically at 570 nm. […] IC50 values were expressed as the mean ± standard deviation (M ± SD) of two independent experiments done in quadruplicate.

Jurkat = test: MTT cytotoxicity assay; assay type: cell-based, human; conditions: Jurkat vs Vero; 48 h
Experimental: as §1

Row | SMILES | SI (IC50 Vero/IC50 HeLa) (HeLa) | SI (IC50 Vero/IC50 Jurkat) (Jurkat)
1 | COc1cccc2c1C(=O)c1c(O)c3c(c(O)c1C2=O)C[C@@](O)(C(=O)CO)C[C@@H]3O[C@H]1C[C@H](N)[C@H](O)[C@H](C)O1 [Doxorubicin, doxorubicin, reference compound] | 2.2 | 22
2 | CC(C)CCCc1ccc2c(c1)C(=O)C(Cl)=C(Cl)C2=O [NQ 4] | 14 | 18
